Source: PubChem BioAssay (NCATS)
The shares of active, inactive and inconclusive entries below differ from those in the screen. Where the call is inconclusive, the potency comes from a doubtful curve fit. Calls of active or inactive are those of the source. Calls come from the whole dose curve; as a rule, active = well fitted curve in the direction sought with a large enough effect; inconclusive = small, poorly fitted or top-dose-only effect, or another doubt; inactive = no such curve, though single readings can be large; an effect the other way counts as inactive or inconclusive.

Legend:
[1] = qHTS of pediatric cancer cell lines to identify multiple opportunities for drug repurposing: Confirmatory screen for control Hh wild type fibroblast cells (AID 1347121); note: nearly all actives have a fitted effect of over 70% in size
Procedure, shortened: (§1)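 Cells (500-1,000/well) rested 5 h, then received compounds for 48 h; metabolically active cells were measured by CellTiter-Glo luminescence. Final concentrations spanned up to 46 µM (MIPE, 11-point) or 0.59 nM-46 µM (NPC, 8-point) in primary screens, 11-point in follow-ups.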

[2] = qHTS of pediatric cancer cell lines to identify multiple opportunities for drug repurposing: Confirmatory screen for RD cells (AID 1347124); settings: RD rhabdomyosarcoma cell viability; activity change, negative = cytotoxic: at 45.9 µM (top of the series);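 note: cells exposed to compound for 48 h before viability readout; nearly all actives have a fitted effect of over 65% in size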
Procedure, shortened: as §1

[3] = qHTS of pediatric cancer cell lines to identify multiple opportunities for drug repurposing: Confirmatory screen for Rh18 cells (AID 1347125); settings: Rh18 rhabdomyosarcoma cells, viability; activity change, negative = cytotoxic: at 45.9 µM (top of the series); note: nearly all actives have a fitted effect of over 55% in size
Procedure, shortened: as §1

[4] = qHTS of pediatric cancer cell lines to identify multiple opportunities for drug repurposing: Confirmatory screen for Saos-2 cells (AID 1347127); note: nearly all actives have a fitted effect of over 60% in size
Procedure, shortened: as §1

[5] = qHTS of pediatric cancer cell lines to identify multiple opportunities for drug repurposing: Confirmatory screen for OHS-50 cells (AID 1347128);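 note: compound exposure lasted 48 h at 37 degrees C; nearly all actives have a fitted effect of over 55% in size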
Procedure, shortened: as §1

[6] = qHTS of pediatric cancer cell lines to identify multiple opportunities for drug repurposing: Confirmatory screen for SK-N-SH cells (AID 1347129);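 note: cells exposed to compound for 48 h before viability read; nearly all actives have a fitted effect of over 60% in size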
Procedure, shortened: as §1

[7] = qHTS of pediatric cancer cell lines to identify multiple opportunities for drug repurposing: Confirmatory screen for U-2 OS cells (AID 1347122); note: nearly all actives have a fitted effect of over 65% in size
Procedure, shortened: as §1

[8] = qHTS of pediatric cancer cell lines to identify multiple opportunities for drug repurposing: Confirmatory screen for Rh41 cells (AID 1347123);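 note: 48 h compound exposure; nearly all actives have a fitted effect of over 60% in size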
Procedure, shortened: as §1

[9] = qHTS of pediatric cancer cell lines to identify multiple opportunities for drug repurposing: Confirmatory screen for Rh30 cells (AID 1347126); note: nearly all actives have a fitted effect of over 55% in size
Procedure, shortened: as §1
Potency is the fitted concentration of half-maximal effect.

COc1cccc2nc(-c3cccs3)nc(NN3C(=O)C=C(C)C3=O)c12
Potency [1]: inconclusive: 4.65 µM [cytotoxic, partial curve, poor fit]
Potency [2]: active: 5.22 µM
Potency [3]: active: 20.8 µM
Potency [4]: active: 2.93 µM
Potency [5]: inconclusive: 1.65 µM [cytotoxic, partial curve]
Potency [6]: active: 2.96 µM

CCOc1cc2ncc(C#N)c(Nc3ccc(F)c(Cl)c3)c2cc1NC(=O)C=CCN(C)C
Potency [7]: inconclusive: 36.9 µM [cytotoxic, single point]
Potency [8]: inconclusive: 36.9 µM [cytotoxic, single point]
Potency [2]: inactive
Potency [3]: inactive
Potency [9]: inconclusive: 32.9 µM [cytotoxic, single point]
Potency [6]: inconclusive: 37.2 µM [cytotoxic, single point]

Cc1c(C(=O)Nc2ccc(N3C[C@@H](C)O[C@@H](C)C3)nc2)cccc1-c1ccc(OC(F)(F)F)cc1
Potency [8]: active: 16.5 µM
Potency [2]: inactive
Potency [3]: inactive
Potency [9]: inconclusive: 18.5 µM [cytotoxic, single point]
Potency [4]: inconclusive: 36.9 µM [cytotoxic, single point]
Potency [5]: inconclusive: 36.9 µM [cytotoxic, single point]

Cc1c(C(=O)NN2CCCCC2)nn(-c2ccc(Cl)cc2Cl)c1-c1ccc(Cl)cc1
Potency [8]: active: 18.5 µM
Potency [2]: inactive
Potency [3]: inconclusive: 10.4 µM [cytotoxic, partial curve]
Potency [9]: inconclusive: 5.85 µM [cytotoxic, partial curve, poor fit]
Potency [4]: active: 20.8 µM
Potency [5]: inconclusive: 16.5 µM [cytotoxic, partial curve]

COCC(=O)NCC=Cc1ccc2ncnc(Nc3ccc(Oc4ccc(C)nc4)c(C)c3)c2c1
Potency [1]: active: 42.7 µM
Potency [3]: inconclusive: 33.9 µM [cytotoxic, single point]
Potency [4]: inconclusive: 47.9 µM [cytotoxic, single point]
Potency [5]: active: 42.7 µM
Potency [6]: inconclusive: 20.9 µM [cytotoxic, single point]

COc1cc(NCc2ccc3nc(N)nc(N)c3c2C)cc(OC)c1OC
Potency [8]: inconclusive: 11.7 µM [cytotoxic, partial curve, poor fit]
Potency [2]: inconclusive: 0.0657 µM [cytotoxic, full curve, poor fit]
Potency [3]: inconclusive: 36.9 µM [cytotoxic, partial curve, poor fit]

CCc1cc(C(C)=NOCc2ccc(C3CCCCC3)c(C(F)(F)F)c2)ccc1CN1CC(C(=O)O)C1
Potency [7]: inactive
Potency [8]: inconclusive: 32.9 µM [cytotoxic, single point]
Potency [3]: inactive
Potency [6]: inconclusive: 16.6 µM [cytotoxic, partial curve, poor fit]

COc1ccc2c(c1)c(C1=C(c3c[nH]c4ccccc34)C(=O)NC1=O)cn2CCCN(C)C
Potency [7]: inconclusive: 26.1 µM [cytotoxic, single point]
Potency [8]: active: 20.8 µM
Potency [2]: inconclusive: 32.9 µM [cytotoxic, single point]
Potency [4]: inactive
Potency [5]: active: 23.3 µM
Potency [6]: active: 16.6 µM

CCC(C(=O)O)C1CCC(C)C(C(C)C(O)C(C)C(=O)C(CC)C2OC3(C=CC(O)[C@@]4(CC[C@](C)(C5CC[C@@](O)(CC)C(C)O5)O4)O3)C(C)CC2C)O1 (some centres undefined)
Potency [1]: inconclusive: 11.7 µM [cytotoxic, partial curve, poor fit]
Potency [2]: inconclusive: 36.9 µM [cytotoxic, single point]
Potency [3]: inconclusive: 16.5 µM [cytotoxic, partial curve, poor fit]
Potency [4]: inconclusive: 1.17 µM [cytotoxic, full curve, poor fit]
Potency [5]: active: 0.369 µM

CSc1cccc(Nc2ncc3cc(-c4c(Cl)cccc4Cl)c(=O)n(C)c3n2)c1
Potency [1]: inconclusive: 1.85 µM [cytotoxic, full curve, poor fit]
Potency [5]: active: 4.65 µM

CN1CCN(c2cc(C(=O)Nc3ccc4c(c3)-c3c(c(C(N)=O)nn3-c3ccc(F)cc3)CC4)c(Cl)cn2)CC1
Potency [1]: inconclusive: 20.8 µM [cytotoxic, single point]
Potency [2]: inconclusive: 32.9 µM [cytotoxic, single point]
Potency [9]: active: 0.465 µM
Potency [4]: inconclusive: 32.9 µM [cytotoxic, single point]
Potency [5]: active: 23.3 µM
